# PubChem BioAssay AID1508588, Peter MacCallum Cancer Centre | 2020
# Aim: 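Knock-downs boosting vemurafenib effects on melanoma cell growth or lactate release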 (primary screen)
# Cells: human WM266.4 melanoma cells (BRAF V600 mutant)
# Knock-down reagent: siRNA pool against human genes, 40 nM
# Time to read-out: 96 h from transfection to read-out
# Challenge: vemurafenib 300 nM (about IC25), added 48 h after transfection, for 48 h; comparison arm got DMSO vehicle only
# Read-out: 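Ratios to non-targeting siRNA for cell gain, counted as DAPI nuclei after minus before drug and averaged over two replicates, and for absorbance-read medium lactate per cell; both binned into fold-change classes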
# Direction: cell gain with vemurafenib: higher = more cell gain than with non-targeting siRNA; lactate per cell with vemurafenib: higher = more lactate made per cell
# Call rule: 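Enhancement is called by pairing each knock-down's vehicle-arm and drug-arm fold-change classes for viability or glycolysis; which class combinations qualify is not given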
# Meaning of the calls: active = enhances vemurafenib effect; inactive = no enhancement seen
# Shown is a random part of about 18,000 reagents. In the full data, 790 (4.4%) got an active call. 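Calls rest on a combination of fold-change classes in drug and vehicle arms, not all shown here.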 Entries without a mark were called inactive.
Target gene,cell gain with vemurafenib,lactate per cell with vemurafenib
UBR3 (ubiquitin protein ligase E3 component n-recognin 3),0.59,1.19
ZNF24 (zinc finger protein 24),0.94,0.6
LTB4R (leukotriene B4 receptor),-0.01,1.4
IKBKE (inhibitor of nuclear factor kappa B kinase subunit epsilon),0.19,1.6
MIEF2 (mitochondrial elongation factor 2),0.21,1.69
SPRED3 (sprouty related EVH1 domain containing 3),1.37,0.58
PROX1 (prospero homeobox 1),0.62,1.9
RRAS (RAS related),0.51,1.27
PPP2R2D (protein phosphatase 2 regulatory subunit Bdelta),0.66,1.07
CYP2U1 (cytochrome P450 family 2 subfamily U member 1),0.31,0.82
TEX47 (testis expressed 47),0.73,0.64
CDC42EP3 (CDC42 effector protein 3),0.52,1.27
MS4A5 (membrane spanning 4-domains A5),0.39,0.67
MLXIP (MLX interacting protein),1.25,0.86
"ALG11 (ALG11 alpha-1,2-mannosyltransferase)",1.05,0.72
GPR62 (G protein-coupled receptor 62),1,0.68
TGM1 (transglutaminase 1),0.43,1.77
CNTNAP1 (contactin associated protein 1),0.36,1.08
ATF5 (activating transcription factor 5),0.42,0.7
SP6 (Sp6 transcription factor),0.36,1.48
C1orf94 (chromosome 1 open reading frame 94),0.67,0.78
KLHL23 (kelch like family member 23),0.42,1.16
L3MBTL2 (L3MBTL histone methyl-lysine binding protein 2),0.36,1.09
RIGI (RNA sensor RIG-I),0.61,1.31
CNGB3 (cyclic nucleotide gated channel subunit beta 3),1.12,0.4
ESR2 (estrogen receptor 2),0.99,0.84
IMMP1L (inner mitochondrial membrane peptidase subunit 1),0.84,0.64
TRIM51 (tripartite motif-containing 51),0.54,1.76
TM7SF2 (transmembrane 7 superfamily member 2),0.14,3.19
ZNF260 (zinc finger protein 260),0.76,0.86
VWC2 (von Willebrand factor C domain containing 2),0.25,0.34
PPP4C (protein phosphatase 4 catalytic subunit),0.72,0.78
CTAGE15 (CTAGE family member 15),0.86,1.39
CDK3 (cyclin dependent kinase 3),0.54,0.56
"GGT2P (gamma-glutamyltransferase 2, pseudogene)",0.46,0.73
BTBD2 (BTB domain containing 2),0.65,1.52
SLC7A6OS,0.16,3.14
DPYSL2 (dihydropyrimidinase like 2),0.35 (active),0.18
MAF1 (MAF1 negative regulator of RNA polymerase III),0.32,2.12
PRSS8 (serine protease 8),0.55,0.84
MYH1 (myosin heavy chain 1),0.47,1.2
WSB2 (WD repeat and SOCS box containing 2),0.3,1.41
ABHD14B (abhydrolase domain containing 14B),0.38,1.05
PCBP4 (poly(rC) binding protein 4),0.87,0.9
GDAP1L1,-0.04 (active),0.04
GPC1 (glypican 1),0.38,1.26
STK32C (serine/threonine kinase 32C),0.49,0.97
MAP4K4 (mitogen-activated protein kinase kinase kinase kinase 4),1.43,0.56
NINL (ninein like),0.58,1.32
LYPD8 (LY6/PLAUR domain containing 8),1.02,0.62
GALK2 (galactokinase 2),0.36,1.31
GPC2 (glypican 2),0.64,0.3
ZSCAN22 (zinc finger and SCAN domain containing 22),0.28,1.27
IFNA5 (interferon alpha 5),0.63,1.3
ZDHHC4 (zDHHC palmitoyltransferase 4),0.65,1.3
SLC10A1,0.66,0.56
DCX (doublecortin),0.48,1.04
SAMD13 (sterile alpha motif domain containing 13),0.57,0.93
PPIB (peptidylprolyl isomerase B),0.63,0.79
AMDHD2 (amidohydrolase domain containing 2),0.46,1.7
DVL1 (dishevelled segment polarity protein 1),0.92,0.46
RPL35 (ribosomal protein L35),0.04,1.68
SLC44A2,0.07,2.31
SPI1 (Spi-1 proto-oncogene),0.64,0.56
EXOSC1 (exosome component 1),0.32,1.33
PTGER4 (prostaglandin E receptor 4),0.35,1.64
IPO8 (importin 8),0.72,0.33
TBL1X (transducin beta like 1 X-linked),0.23,0.85
DEFA5 (defensin alpha 5),0.45,1.58
LRRTM3 (leucine rich repeat transmembrane neuronal 3),0.48,1.15
GSG1L (GSG1 like),0.38,1.02
ENOX2 (ecto-NOX disulfide-thiol exchanger 2),0.48,1.23
EML5 (EMAP like 5),0.57,1.13
MEGF9 (multiple EGF like domains 9),1.01,0.96
TEX30 (testis expressed 30),0.7,1.04
HYPK (huntingtin interacting protein K),0.63,0.9
NRIP3 (nuclear receptor interacting protein 3),0.72,0.64
CARD16 (caspase recruitment domain family member 16),0.69,0.97
ATP8A2 (ATPase phospholipid transporting 8A2),0.83,0.94
UMOD (uromodulin),0.33,0.82
KSR1 (kinase suppressor of ras 1),0.04,0.62
CLC (Charcot-Leyden crystal galectin),0.26,0.29
MAPDA (N6-Methyl-AMP deaminase),1.02,0.81
SLC35D1,1,1.16
PTPRR (protein tyrosine phosphatase receptor type R),0.78,0.81
DDX42 (DEAD-box helicase 42),0.05,1.39
CLEC11A (C-type lectin domain containing 11A),0.45,1.67
GPR78 (G protein-coupled receptor 78),0.94,0.72
EIF4ENIF1,0.78,1.05
PTPN11 (protein tyrosine phosphatase non-receptor type 11),0.76,0.92
ZFHX4 (zinc finger homeobox 4),0.68,0.87
TPD52L3 (TPD52 like 3),0.51,1.05
APPBP2 (amyloid beta precursor protein binding protein 2),0.71,0.68
ZBED4 (zinc finger BED-type containing 4),0.59,0.42
NFIX (nuclear factor I X),0.39,0.86
CA8 (carbonic anhydrase 8 (inactive)),0.86,1.11
RMI1 (RecQ mediated genome instability 1),0.83,0.9
RPL10L (ribosomal protein L10 like),0.48,1.11
MFAP2 (microfibril associated protein 2),0.4,1.79
DPY19L3 (dpy-19 like C-mannosyltransferase 3),1.08,0.98
CLIC2 (CLIC family member 2),0.7,0.82
MAGEA2 (MAGE family member A2),0.25,0.77
RGS19 (regulator of G protein signaling 19),1.01,0.74
KLRC2 (killer cell lectin like receptor C2),0.79,0.73
CNOT4 (CCR4-NOT transcription complex subunit 4),0.51,0.95
CCZ1 (CCZ1 vacuolar protein trafficking and biogenesis associated),0.79 (active),0.41
EBF1 (EBF transcription factor 1),0.94,0.84

9 consecutive entries from above, quoted:
Target gene,cell gain with vemurafenib,lactate per cell with vemurafenib
PCBP4 (poly(rC) binding protein 4),0.87,0.9
GDAP1L1,-0.04 (active),0.04
GPC1 (glypican 1),0.38,1.26
STK32C (serine/threonine kinase 32C),0.49,0.97
MAP4K4 (mitogen-activated protein kinase kinase kinase kinase 4),1.43,0.56
NINL (ninein like),0.58,1.32
LYPD8 (LY6/PLAUR domain containing 8),1.02,0.62
GALK2 (galactokinase 2),0.36,1.31
GPC2 (glypican 2),0.64,0.3
